Experimental data published in PMC2614475.
These are yes or no findings as the source states them, for the method shown. For part of these data: Binding calls can cover weak binding; strength is not graded here. Sequences can lack the tags named with a protein. For part of these data: In cells and extracts the contact can be indirect.

Amino acid sequences for entries named in this document (tags omitted). A change or cut given only in a name is not applied to a line headed by its entry.
UniProt Q9Z340: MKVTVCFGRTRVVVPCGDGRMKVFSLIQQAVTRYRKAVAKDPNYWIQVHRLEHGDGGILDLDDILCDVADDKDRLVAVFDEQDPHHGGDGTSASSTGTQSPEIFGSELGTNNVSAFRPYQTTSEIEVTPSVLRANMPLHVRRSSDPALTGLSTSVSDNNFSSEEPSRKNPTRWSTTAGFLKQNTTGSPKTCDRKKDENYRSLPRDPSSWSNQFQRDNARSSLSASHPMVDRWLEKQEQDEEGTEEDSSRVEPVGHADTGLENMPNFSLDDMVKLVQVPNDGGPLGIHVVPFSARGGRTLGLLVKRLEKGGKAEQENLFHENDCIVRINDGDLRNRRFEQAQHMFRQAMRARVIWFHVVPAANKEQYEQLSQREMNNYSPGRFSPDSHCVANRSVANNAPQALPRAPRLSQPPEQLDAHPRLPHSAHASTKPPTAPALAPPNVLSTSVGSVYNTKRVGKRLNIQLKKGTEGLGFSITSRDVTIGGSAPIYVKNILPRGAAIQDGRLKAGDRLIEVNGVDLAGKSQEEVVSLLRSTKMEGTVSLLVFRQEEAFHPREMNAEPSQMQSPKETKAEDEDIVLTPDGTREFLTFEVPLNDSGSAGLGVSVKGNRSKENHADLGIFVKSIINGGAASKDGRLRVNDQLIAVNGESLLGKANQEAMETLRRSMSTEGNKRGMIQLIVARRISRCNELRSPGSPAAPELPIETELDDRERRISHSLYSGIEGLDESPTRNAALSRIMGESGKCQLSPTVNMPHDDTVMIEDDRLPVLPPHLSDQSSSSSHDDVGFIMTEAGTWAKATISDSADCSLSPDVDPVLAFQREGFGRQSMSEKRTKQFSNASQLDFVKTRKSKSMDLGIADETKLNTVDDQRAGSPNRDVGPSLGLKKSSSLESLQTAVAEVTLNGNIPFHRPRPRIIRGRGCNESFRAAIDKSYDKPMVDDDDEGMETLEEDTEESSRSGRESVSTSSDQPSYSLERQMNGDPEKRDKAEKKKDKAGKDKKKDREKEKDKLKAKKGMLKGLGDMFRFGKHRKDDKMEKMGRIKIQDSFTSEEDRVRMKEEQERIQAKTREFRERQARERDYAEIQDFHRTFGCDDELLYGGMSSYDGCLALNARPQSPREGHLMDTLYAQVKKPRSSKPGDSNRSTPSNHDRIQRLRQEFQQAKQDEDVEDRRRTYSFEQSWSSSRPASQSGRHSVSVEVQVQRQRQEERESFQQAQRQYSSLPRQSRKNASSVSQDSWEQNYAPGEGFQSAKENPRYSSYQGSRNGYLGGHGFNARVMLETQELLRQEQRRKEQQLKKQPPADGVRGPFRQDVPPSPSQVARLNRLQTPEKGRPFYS

T1: glutathione S-transferase fused with the cytoplasmic tail of nephrin (GST–nephrinICD) (human) (UniProt O60500)
T1 sequence: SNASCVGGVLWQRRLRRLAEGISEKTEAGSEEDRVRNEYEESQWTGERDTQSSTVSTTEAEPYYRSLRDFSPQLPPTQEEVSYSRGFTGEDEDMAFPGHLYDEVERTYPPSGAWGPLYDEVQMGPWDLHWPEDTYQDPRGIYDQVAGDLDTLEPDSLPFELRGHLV


Columns and labels:
[1] = molecular target: T1, glutathione S-transferase fused with the cytoplasmic tail of nephrin (GST–nephrinICD) (human); assay: pull-down; GST–nephrinICD-immobilized beads incubated 2 h at 4°C with 293T cell lysate expressing T7-tagged PAR3 constructs; 25 mM Tris-HCl pH 8.0, 100 mM NaCl, 5 mM EDTA, 1% TritonX-100; immunoblotting and CBB staining; only the target purified
[2] = molecular target: the three PDZ domains of PAR3 fused with maltose binding protein (MBP–PDZ123) (rat) (UniProt Q9Z340); assay: pull-down; purified MBP–PDZ123 incubated with GST-fused nephrin constructs, each at a final concentration of 50 nM; text says MBP–PDZ123 was immobilized; immunoblotting and CBB staining; both purified

| binding [1] | binding [2] | Molecule |
| --- | --- | --- |
| no binding | – | T7-tagged PAR3 mutant mutated in the third PDZ domain (from UniProt Q9Z340) |
| – | binds | EAEPYYRSLRDFSPQLPPTQEEVSYSRGFTG (domain or fragment, UniProt O60500 1134-1164) [GST–nephrin ICD-A] |
| – | binds | SLPFELRGHLV (peptide, UniProt O60500 1231-1241) [GST–nephrin CT11] |
